The list shows a part of the results.

Holding throughout (test): log2 fold change, soluble protein after heating vs DMSO (PISA); higher = thermal stabilisation; K562 lysate, 10 uM; active = over 0.2 and 3.5 SD of the protein, either way, in both replicates (recomputed)
Compound in experiment [1]: C1=CC=C(C=C1)[C@H](COC2=CC3=C(C=C2)NC(=O)N3)NC(=O)C4=CC=CN(C4=O)CC5=CC(=C(C=C5)F)F
The method in brief: (§1)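 Values give the log-two fold change in thermal stability against solvent controls, from duplicates. Crude K562 extract at 1 mg/mL protein, made by dounce homogenisation in PBS pH 7.4 with 1 mM MgCl2, was treated with 10 μM compound for 30 min. After 3 min heating across 48°C-58°C, aliquots were pooled, adjusted to 0.5% NP-40 at 4°C and centrifuged at 21,000xg for 90 min. The supernatant was measured by TMTpro 16plex LC-MS/MS with channel sums equalised.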

Compound in experiment [2]: CC1=C(SC2=C1C(=N[C@H](C3=NN=C(N32)C)CC(=O)N)C4=CC=C(C=C4)Cl)C
An outline of the steps: as §1

Compound in experiment [3]: CC1=C2C(=CC=C1)N=C(N(C2=O)C3=CC=CC=C3C)CN4C=NC5=C(N=CN=C54)N
An outline of the steps: as §1

Compound in experiment [4]: Cc1sc2c(c1C)C(c1ccc(Cl)cc1)=N[C@@H](CC(=O)OC(C)(C)C)c1nnc(C)n1-2
The method in brief: as §1

Compound in experiment [5]: c1ccc([C@@H]2C[C@H]2NC2CCNCC2)cc1
An outline of the steps: as §1

Turning to PPP6R3 isoform 5 (UniProt Q5H9R7), the log2 fold change in experiment [1] is inactive: 0.033; in experiment [2], inactive: 0.008; in experiment [3] it was inactive: -0.011; in experiment [4] it was inactive: -0.044; in experiment [5], inactive: -0.019.
For PRKCSH isoform 2 (UniProt P14314), in that order: inactive: 0.084, inactive: -0.09, inactive: -0.067, inactive: -0.128 and inactive: -0.33.
The matching figures for PRDX5 (UniProt P30044): inactive: -0.017, inactive: -0.024, inactive: -0.011, inactive: 0 and inactive: -0.016.
With PPP6R1 (UniProt Q9UPN7), the log2 fold change in experiment [1] is inactive: -0.014; in experiment [2] it was inactive: 0.018; in experiment [3] it was inactive: 0.013; in experiment [4], inactive: 0.004; in experiment [5], inactive: -0.003.
For the target PPP4C (UniProt P60510), the log2 fold change in experiment [1] was inactive: 0.027; in experiment [2], inactive: 0.031; in experiment [3], inactive: 0.009; in experiment [4], inactive: 0.025; in experiment [5] it was inactive: 0.016.
PPP4R1 (UniProt Q8TF05): the log2 fold change in experiment [1] is inactive: -0.018; in experiment [2], inactive: 0.022; in experiment [3], inactive: 0.023; in experiment [4], inactive: -0.013; in experiment [5], inactive: -0.006.
The matching figures for PPME1 isoform 4 (UniProt Q9Y570): inactive: -0.004, inactive: 0.013, inactive: -0.019, inactive: 0.021 and inactive: 0.007.
For PRAME (UniProt P78395), in that order: inactive: -0.009, inactive: 0.014, inactive: 0.014, inactive: -0.008 and inactive: 0.026.
Turning to PPIF (UniProt P30405), the log2 fold change in experiment [1] was inactive: 0.008; in experiment [2], inactive: 0.035; in experiment [3], inactive: 0.001; in experiment [4], inactive: -0.007; in experiment [5], inactive: -0.11.
Consider PRH1 (UniProt P02810), for which the log2 fold change in experiment [5] is inactive: 0.034.
On to PPP1R16A (UniProt Q96I34), for which the log2 fold change in experiment [1] is inactive: -0.141; in experiment [2] it was inactive: 0.039; in experiment [3], inactive: -0.128; in experiment [5], inactive: 0.061.
Turning to PPOX (UniProt P50336), the log2 fold change in experiment [1] was active: 0.579; in experiment [2], inactive: 0.012; in experiment [3], inactive: -0.009; in experiment [4] it was inactive: -0.02; in experiment [5] it was inactive: -0.023.
Consider PPP2R3B (UniProt Q9Y5P8), for which the log2 fold change in experiment [1] was inactive: -0.018; in experiment [2], inactive: -0.299; in experiment [5], inactive: 0.046.
Regarding PRDM15 (UniProt P57071), the log2 fold change in experiment [4] is inactive: -0.196.
Regarding PROSER3 (UniProt Q2NL68), the results for the log2 fold change in experiment [3] and in experiment [5] were inactive: -0.051 and inactive: -0.086, respectively.
For the target PRADC1 (UniProt Q9BSG0), the log2 fold change is inactive: 0.267 in experiment [1], inactive: 0.021 in experiment [2], inactive: -0.029 in experiment [4] and inactive: 0.018 in experiment [5].
Regarding PRKD3 (UniProt O94806), the log2 fold change in experiment [1] is inactive: 0.035; in experiment [2], inactive: 0; in experiment [3], inactive: 0.206; in experiment [5], inactive: -0.386.
On to PPP1R3E (UniProt Q9H7J1), for which the log2 fold change in experiment [5] is inactive: -0.058.
In the case of PRKAB1 (UniProt Q9Y478), the log2 fold change in experiment [1] was inactive: -0.024; in experiment [2], inactive: 0.051; in experiment [3], inactive: -0.032; in experiment [4], inactive: -0.026; in experiment [5] it was inactive: -0.067.
In the case of PRNP (UniProt P04156), the log2 fold change in experiment [1] was inactive: 0.213; in experiment [2], inactive: 0.063; in experiment [4], inactive: -0.016; in experiment [5], inactive: -0.162.
Consider PPP1R15B (UniProt Q5SWA1), for which, in experiment [5], the log2 fold change was inactive: -0.072.
For PPL (UniProt O60437), the log2 fold change is inactive: -0.225 in experiment [1], inactive: 0.169 in experiment [2] and inactive: -1.74 in experiment [4].
In the case of PPP2R5B (UniProt Q15173), the log2 fold change in experiment [1] is inactive: -0.08; in experiment [2], inactive: -0.037; in experiment [3], inactive: -0.024; in experiment [4], inactive: -0.006; in experiment [5] it was inactive: 0.066.
For PPP1R11 (UniProt O60927), the log2 fold change in experiment [1] was inactive: -0.025; in experiment [2], inactive: -0.095; in experiment [4], inactive: 0.014; in experiment [5], inactive: 0.001.
Regarding PPP1R13L (UniProt Q8WUF5), the log2 fold change in experiment [1] is inactive: -0.396; in experiment [2], inactive: -0.242; in experiment [3] it was inactive: 0.037; in experiment [5], inactive: -0.089.
Regarding PRG4 (UniProt Q92954), the log2 fold change in experiment [1] was inactive: 0.03; in experiment [2] it was inactive: -0.081; in experiment [4], inactive: -0.059; in experiment [5] it was active: -1.18.
For PPM1B isoform 2 (UniProt O75688), the values for the log2 fold change in experiment [1], in experiment [2] and in experiment [4] were inactive: 0.125, inactive: 0.124 and inactive: 0.012, respectively.
Consider PPP3CA isoform 2 (UniProt Q08209), for which the log2 fold change in experiment [1] is inactive: -0.026; in experiment [2], inactive: -0.115; in experiment [3], inactive: -0.017; in experiment [4], inactive: 0.004; in experiment [5], inactive: 0.043.
The matching figures for PRPF38B (UniProt Q5VTL8): inactive: 0.008, inactive: -0.008, inactive: 0.012, inactive: 0.002 and inactive: 0.009.
For the target PPP6R3 isoform 6 (UniProt Q5H9R7), in experiment [5], the log2 fold change was inactive: -0.02.
Turning to PRDX3 (UniProt P30048), the log2 fold change was inactive: -0.015 in experiment [1]; inactive: -0.076 in experiment [2]; inactive: -0.019 in experiment [3]; inactive: -0.036 in experiment [4]; inactive: -0.051 in experiment [5].
On to PPP6R3 isoform 2 (UniProt Q5H9R7), for which the log2 fold change in experiment [5] was inactive: 0.061.
In the case of PRKCB isoform 2 (UniProt P05771), the log2 fold change in experiment [1] was inactive: -0.007; in experiment [2] it was inactive: -0.022; in experiment [3], inactive: 0.086; in experiment [4], inactive: 0.07; in experiment [5], inactive: -0.005.
On to PROSER3, A0A2R8Y8D9, for which, in experiment [4], the log2 fold change is inactive: 0.003.
Still for that read-out and setting: in the case of PRG2 (UniProt P13727) it was inactive: -0.112.
In the case of PPP4R3A (UniProt Q6IN85), the log2 fold change in experiment [1] is inactive: -0.004; in experiment [2], inactive: 0.029; in experiment [3], inactive: 0.018; in experiment [4] it was inactive: 0.007; in experiment [5] it was inactive: -0.051.
In the case of PPP2CB (UniProt E5RHC1), the log2 fold change was inactive: -0.186 in experiment [1], inactive: 0.23 in experiment [2], inactive: 0.267 in experiment [4] and inactive: 0.346 in experiment [5].
With PPP1R3D (UniProt O95685), the log2 fold change in experiment [1] was inactive: 0.116; in experiment [2], inactive: -0.043; in experiment [3] it was inactive: 0.078; in experiment [5], inactive: 0.002.
Turning to PREP (UniProt H0Y5Y0), the log2 fold change in experiment [5] is inactive: 0.086.
Turning to PPTC7 (UniProt Q8NI37), the values for the log2 fold change in experiment [3] and in experiment [4] were inactive: -0.019 and inactive: 0.076, respectively.
As to PPP1R12C isoform 3 (UniProt Q9BZL4), the figures for the log2 fold change in experiment [1], in experiment [2] and in experiment [5] were inactive: 0.126, inactive: 0.036 and inactive: -0.237, respectively.
In the case of PPME1 (UniProt Q9Y570), the log2 fold change in experiment [1] was inactive: 0.057; in experiment [2] it was inactive: -0.02; in experiment [4] it was inactive: 0.06.

The values above are taken from the supplement of paper PMC10849652.
